Test results reported in patent US20230102488A1, “COMPOUNDS AND THEIR USE FOR THE TREATMENT OF ALPHA1-ANTITRYPSIN DEFICIENCY” (Z Factor Limited, priority 2019, published 2023).
Some results were stated once for a whole list of compounds, not compound by compound.

The chains behind the UniProt entries cited, without tags or fusion partners. Residues count along the entry.
UniProt P01009, 25-418 E366K: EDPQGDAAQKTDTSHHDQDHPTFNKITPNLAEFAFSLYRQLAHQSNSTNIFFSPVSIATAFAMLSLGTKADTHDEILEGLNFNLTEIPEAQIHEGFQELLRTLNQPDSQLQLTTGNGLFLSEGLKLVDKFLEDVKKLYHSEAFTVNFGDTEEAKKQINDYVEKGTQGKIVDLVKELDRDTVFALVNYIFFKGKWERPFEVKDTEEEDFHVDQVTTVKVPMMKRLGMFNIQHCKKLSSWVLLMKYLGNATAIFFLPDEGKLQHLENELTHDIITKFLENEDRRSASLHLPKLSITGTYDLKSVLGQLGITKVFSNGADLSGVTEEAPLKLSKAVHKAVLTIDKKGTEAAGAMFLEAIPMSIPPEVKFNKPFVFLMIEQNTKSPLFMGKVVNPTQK

Molecular target: T1, Z A1AT (Homo sapiens, UniProt P01009, E366K)
T1 construct: expressed in transfected cells; host or cells: HEK-Z cells (human embryonic kidney cell line)
Experiment: A1AT cell secretion assay using HEK-Z cells (A1AT ELISA of supernatants)
Format: cell-based
Conditions: 48 h, secreted human A1AT in supernatant by ELISA
Procedure: HEK-Z cells, a human embryonic kidney cell line stably transfected with the human Z A1AT gene, were plated into 96 well plates (3.0×10^5 cells/ml with 200 μl of media/well) overnight at 37° C. in a humidified atmosphere containing 5% CO2. Following incubation cells were washed with 200 μl serum-free media three times and media was replaced with treatments in quadruplicate using serum free media containing either vehicle, 10 μM suberanilohydroxamic acid (SAHA) or a compound of the invention ([…]) for 48 h in a 37° C. incubator in a final volume of 200 μl. At the end of the incubation step the supernatants were removed from the wells, centrifuged at 1000×g at 4° C. for 10 min and were assayed for human A1AT levels by ELISA (Human Serpin A1/α1-antitrypsin duo set ELISA, R& D Systems, DY1268) per manufacturer's instructions.
Briefly, a 96 well plate was coated with human A1AT capture antibody overnight at room temperature (1:180 dilution from stock, 100 μl final volume/well). The capture antibody was then removed and wells washed three times with 300 μl wash buffer (0.05% Tween 20 in PBS) and then 200 μl reagent diluent ([…]) was incubated in each well for 1 h at room temperature. Diluted samples, standards (125, 250, 500, 1000, 2000, 4000 and 8000 pg/ml A1AT) or blanks were then added to each well in duplicate and the plates were covered with a plate sealer and left at room temperature for 2 h. At the end of the sample incubation step, samples were removed and all wells washed as previously and 100 μl detection antibody (1:180 dilution from stock) was added to each well and incubated for a further 2 h at room temperature. […] After which, 50 μl stop solution (2M H2SO4) was added and optical density (OD) of each well was read at 450 nm with 570 nm blank subtracted from each well using a microplate reader. A 4 parameter logistic curve was constructed using GraphPad Prism 7 and A1AT concentrations were determined in each sample by interpolation from a standard curve and multiplying by the appropriate dilution factor.

Row | SMILES | Median A1AT % increase over vehicle at 300 nM
1 | CN(CC(F)(F)F)C(=O)c1ccc(Cn2cnc3ccccc3c2=O)cc1 [Example 17, N-methyl-4-((4-oxoquinazolin-3(4H)-yl)methyl)-N-(2,2,2-trifluoroethyl)benzamide] | increase secretion of Z A1AT
2 | CN(Cc1ccccc1)C(=O)c1ccc(Cn2cnc3ccccc3c2=O)cc1 [Example 16, N-benzyl-N-methyl-4-((4-oxoquinazolin-3(4H)-yl)methyl)benzamide] | increase secretion of Z A1AT
3 | CC(C)N(C)C(=O)c1ccc(Cn2cnc3ccccc3c2=O)cc1 [Example 15, N-isopropyl-N-methyl-4-((4-oxoquinazolin-3(4H)-yl)methyl)benzamide] | increase secretion of Z A1AT
